Reference: PMC6508934, “Structural basis for mammalian nucleotide sugar transport” (eLife, 2019)
Results are given in words; binding and its absence hold for the method and conditions named.

Tests used:
[1] = biological target: T1, human CMP-sialic acid transporter (human CST) (human), P78382; assay: cross-linking; DSS or BS3 in increasing amounts added to 1 mg/ml purified hCST in Buffer A (50 mM HEPES pH 7.5, 150 mM NaCl, 0.1% DDM), 30 min at room temperature, quenched with Tris; 12% SDS-PAGE, Coomassie; both purified; conditions: remark: other sources report otherwise
T1 chain: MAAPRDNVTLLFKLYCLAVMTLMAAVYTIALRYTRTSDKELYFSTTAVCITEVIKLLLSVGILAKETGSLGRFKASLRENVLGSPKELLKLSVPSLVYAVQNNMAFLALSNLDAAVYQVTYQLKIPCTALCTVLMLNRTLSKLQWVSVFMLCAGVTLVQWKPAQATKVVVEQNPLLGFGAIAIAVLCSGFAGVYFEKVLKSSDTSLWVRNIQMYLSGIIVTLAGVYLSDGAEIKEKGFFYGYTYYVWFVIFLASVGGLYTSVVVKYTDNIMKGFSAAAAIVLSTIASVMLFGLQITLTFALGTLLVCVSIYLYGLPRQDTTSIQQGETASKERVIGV

[2] = biological target: T1, human CMP-sialic acid transporter …; assay: SEC-MALS; SEC-UV/LS/RI, 'three detector' method; 250 ul purified hCST at 0.8 mg/ml on Superdex 200 in Buffer B (25 mM HEPES pH 7.5, 150 mM NaCl, 0.1% DDM, 5 mM DTT, 1 mM EDTA); protein-only mass 38 kDa against 37 kDa theoretical; both purified; conditions: remark: other sources report otherwise

binding [1]: no binding (tested: 1 mg/ml)
binding [2]: no binding (tested: 0.8 mg/ml)
B1: human CMP-sialic acid transporter (human CST), P78382 1-337 (protein)
chain: T1 chain
